Record: PubChem BioAssay AID504774 (Drosophila RNAi Screening Center, 2011)
Screen: 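Knock-downs that shift viability of MMS-exposed cells relative to untreated ones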 (primary screen). System: Drosophila Kc167 cells. Reagent: long dsRNA against Drosophila genes, about 0.25 µg dsRNA per well. Time to read-out: about 6 days: 3 days knock-down, then 3 days with or without MMS. Challenge: methyl methanesulphonate 0.004% (w/v) for 3 days after knock-down. Read-out: 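Viability in wells given MMS, read as ATP luminescence, normalised by quantiles plate by plate and averaged across replicates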. Direction: mean viability with MMS and viability with MMS: higher = more surviving cells after MMS.
In all, the deposit lists about 23,000 reagents; shown is an unselected part of those that have a named target and a result. 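Values are quantile-normalised luminescence on an arbitrary scale; higher means more cells surviving MMS.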 Further read-outs or replicates are left out here.

CG14464 [DRSC07760] — mean viability with MMS = 3.55e6; viability with MMS, replicate 1 = 4.02e6
CG31337 [DRSC12981] — mean viability with MMS = 3.72e6; viability with MMS, replicate 1 = 4.16e6
Adi1 (Acireductone dioxygenase 1) [DRSC10945] — mean viability with MMS = 3.75e6; viability with MMS, replicate 1 = 4.29e6
Adi1 (Acireductone dioxygenase 1) [DRSC21485] — mean viability with MMS = 3.73e6; viability with MMS, replicate 1 = 4.16e6
CG14892 [DRSC15014] — mean viability with MMS = 3.32e6; viability with MMS, replicate 1 = 3.82e6
Cog8 (Component of oligomeric golgi complex 8) [DRSC02961] — mean viability with MMS = 3.63e6; viability with MMS, replicate 1 = 4.28e6
CG13218 [DRSC06340] — mean viability with MMS = 3.48e6; viability with MMS, replicate 1 = 3.87e6
CG33170 [DRSC11854] — mean viability with MMS = 3.60e6; viability with MMS, replicate 1 = 4.10e6
CG33170 [DRSC22366] — mean viability with MMS = 3.75e6; viability with MMS, replicate 1 = 4.09e6
Mvb12 (Multivesicular body subunit 12) [DRSC20027] — mean viability with MMS = 3.76e6; viability with MMS, replicate 1 = 4.23e6
CG18748 [DRSC15385] — mean viability with MMS = 3.54e6; viability with MMS, replicate 1 = 3.99e6
CG8541 [DRSC10989] — mean viability with MMS = 3.52e6; viability with MMS, replicate 1 = 3.94e6
Gapdh2 (Glyceraldehyde 3 phosphate dehydrogenase 2) [DRSC20246] — mean viability with MMS = 3.48e6; viability with MMS, replicate 1 = 3.97e6
Ubc4 (Ubiquitin conjugating enzyme 4) [DRSC11312] — mean viability with MMS = 3.48e6; viability with MMS, replicate 1 = 3.95e6
Nnf1b [DRSC22080] — mean viability with MMS = 3.78e6; viability with MMS, replicate 1 = 4.26e6
Skeletor (retired record) [DRSC14905] — mean viability with MMS = 3.66e6; viability with MMS, replicate 1 = 4.10e6
Skeletor (retired record) [DRSC14906] — mean viability with MMS = 3.48e6; viability with MMS, replicate 1 = 3.97e6
sinah (sina homologue) [DRSC09910] — mean viability with MMS = 3.49e6; viability with MMS, replicate 1 = 3.95e6
sinah (sina homologue) [DRSC22181] — mean viability with MMS = 3.33e6; viability with MMS, replicate 1 = 3.88e6
CG9399 [DRSC16488] — mean viability with MMS = 3.73e6; viability with MMS, replicate 1 = 4.06e6
Ir48a (Ionotropic receptor 48a) [DRSC05301] — mean viability with MMS = 3.50e6; viability with MMS, replicate 1 = 3.90e6
CG3337 [DRSC15478] — mean viability with MMS = 1.85e6; viability with MMS, replicate 1 = 4.09e6
Crag [DRSC18454] — mean viability with MMS = 3.53e6; viability with MMS, replicate 1 = 4.20e6
CG11629 [DRSC03695] — mean viability with MMS = 3.56e6; viability with MMS, replicate 1 = 4.04e6

In a second layout: 2 of the entries above.
target,amplicon,mean viability with MMS,"viability with MMS, replicate 1"
CG33170,DRSC11854,3.60e6,4.10e6
CG33170,DRSC22366,3.75e6,4.09e6
